Consider four molecules from paper doi:10.1101/2020.02.12.946293.

For assay [1], the target named is T1, hMSH5 (human) (UniProt O43196).
T1 sequence: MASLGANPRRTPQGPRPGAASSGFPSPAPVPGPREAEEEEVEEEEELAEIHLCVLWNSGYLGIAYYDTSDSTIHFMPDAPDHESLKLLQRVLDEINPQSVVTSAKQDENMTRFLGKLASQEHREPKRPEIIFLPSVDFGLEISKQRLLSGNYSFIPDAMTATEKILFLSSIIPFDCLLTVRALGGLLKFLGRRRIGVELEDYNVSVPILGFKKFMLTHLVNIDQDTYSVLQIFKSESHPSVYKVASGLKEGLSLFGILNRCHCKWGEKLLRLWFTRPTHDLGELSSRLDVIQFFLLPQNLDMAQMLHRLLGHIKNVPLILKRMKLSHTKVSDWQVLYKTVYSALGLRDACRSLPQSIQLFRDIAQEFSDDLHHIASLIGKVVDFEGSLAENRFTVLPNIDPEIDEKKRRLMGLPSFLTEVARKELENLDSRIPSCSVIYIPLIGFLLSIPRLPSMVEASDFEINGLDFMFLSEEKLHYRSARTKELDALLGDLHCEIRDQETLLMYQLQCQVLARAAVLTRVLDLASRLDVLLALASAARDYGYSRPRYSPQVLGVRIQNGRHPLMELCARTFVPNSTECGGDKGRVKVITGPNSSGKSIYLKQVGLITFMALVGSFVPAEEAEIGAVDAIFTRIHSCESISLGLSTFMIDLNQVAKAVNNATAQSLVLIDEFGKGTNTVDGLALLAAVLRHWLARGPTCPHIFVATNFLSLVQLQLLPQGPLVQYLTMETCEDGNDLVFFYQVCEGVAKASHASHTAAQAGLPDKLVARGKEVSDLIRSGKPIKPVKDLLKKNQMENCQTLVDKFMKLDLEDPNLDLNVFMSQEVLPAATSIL
Briefly: co-purification by tandem affinity.

The target in assay [2] is T2, hMSH5(G597A) (human) (UniProt O43196).
T2 sequence: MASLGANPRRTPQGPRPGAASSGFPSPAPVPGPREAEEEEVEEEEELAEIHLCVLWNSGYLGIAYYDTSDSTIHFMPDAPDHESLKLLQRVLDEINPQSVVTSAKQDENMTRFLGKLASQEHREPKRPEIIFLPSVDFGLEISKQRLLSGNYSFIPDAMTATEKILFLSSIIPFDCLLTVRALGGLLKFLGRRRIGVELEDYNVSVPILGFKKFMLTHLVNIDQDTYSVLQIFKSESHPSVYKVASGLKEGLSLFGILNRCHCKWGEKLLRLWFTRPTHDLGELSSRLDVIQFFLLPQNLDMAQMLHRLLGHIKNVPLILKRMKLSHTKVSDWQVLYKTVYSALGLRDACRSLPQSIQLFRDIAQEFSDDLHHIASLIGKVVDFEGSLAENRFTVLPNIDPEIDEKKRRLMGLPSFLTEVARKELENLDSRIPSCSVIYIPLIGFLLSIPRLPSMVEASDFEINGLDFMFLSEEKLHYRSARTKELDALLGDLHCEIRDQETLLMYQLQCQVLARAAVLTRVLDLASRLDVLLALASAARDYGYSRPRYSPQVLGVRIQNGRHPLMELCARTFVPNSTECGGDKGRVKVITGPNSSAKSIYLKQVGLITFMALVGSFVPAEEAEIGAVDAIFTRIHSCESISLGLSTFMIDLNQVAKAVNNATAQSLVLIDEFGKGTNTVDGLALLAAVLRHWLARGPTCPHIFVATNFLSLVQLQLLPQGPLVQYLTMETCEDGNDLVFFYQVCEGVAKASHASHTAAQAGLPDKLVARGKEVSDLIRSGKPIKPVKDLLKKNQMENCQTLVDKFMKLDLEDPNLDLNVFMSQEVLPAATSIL
Nature of the assay: co-purification by tandem affinity.

The target in assay [3] is T3, Rfc1-TAP (S. cerevisiae (endogenous in SK1 strains)) (UniProt P38630).
T3 sequence: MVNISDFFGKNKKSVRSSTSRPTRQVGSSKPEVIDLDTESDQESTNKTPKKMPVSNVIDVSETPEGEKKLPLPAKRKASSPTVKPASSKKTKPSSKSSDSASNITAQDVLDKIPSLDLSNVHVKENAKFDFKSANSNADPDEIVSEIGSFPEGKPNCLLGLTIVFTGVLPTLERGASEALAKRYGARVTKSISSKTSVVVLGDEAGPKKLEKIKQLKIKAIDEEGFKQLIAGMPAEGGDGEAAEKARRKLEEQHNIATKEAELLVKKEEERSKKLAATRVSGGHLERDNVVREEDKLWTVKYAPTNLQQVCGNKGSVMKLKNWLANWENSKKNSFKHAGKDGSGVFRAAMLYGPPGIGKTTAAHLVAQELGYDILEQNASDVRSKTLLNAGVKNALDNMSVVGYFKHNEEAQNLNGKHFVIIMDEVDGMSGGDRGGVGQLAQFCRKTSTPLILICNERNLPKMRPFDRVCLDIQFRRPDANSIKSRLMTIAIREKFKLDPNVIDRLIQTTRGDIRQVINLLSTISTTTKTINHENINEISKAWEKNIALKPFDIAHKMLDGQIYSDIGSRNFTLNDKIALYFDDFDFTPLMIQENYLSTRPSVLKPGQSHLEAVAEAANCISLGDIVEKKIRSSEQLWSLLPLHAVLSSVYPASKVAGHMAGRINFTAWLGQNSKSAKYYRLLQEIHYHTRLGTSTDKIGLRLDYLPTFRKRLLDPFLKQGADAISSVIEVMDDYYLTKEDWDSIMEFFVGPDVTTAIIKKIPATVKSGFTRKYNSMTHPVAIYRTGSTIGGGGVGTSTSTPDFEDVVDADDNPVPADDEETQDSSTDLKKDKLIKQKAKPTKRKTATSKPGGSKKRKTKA
Nature of the assay: co-IP.

These are yes or no findings as the source states them, for the method shown. For some assays here: In cells and extracts the contact can be indirect. Some entries that bind do so weakly or less than the wild type. For some assays here: Sequences can lack the tags named with a protein.

B1: hMSH4 (protein, UniProt O15457 1-936)
chain: MLRPEISSTSPSAPAVSPSSGETRSPQGPRYNFGLQETPQSRPSVQVVSASTCPGTSGAAGDRSSSSSSLPCPAPNSRPAQGSYFGNKRAYAENTVASNFTFGASSSSARDTNYPQTLKTPLSTGNPQRSGYKSWTPQVGYSASSSSAISAHSPSVIVAVVEGRGLARGEIGMASIDLKNPQIILSQFADNTTYAKVITKLKILSPLEIIMSNTACAVGNSTKLFTLITENFKNVNFTTIQRKYFNETKGLEYIEQLCIAEFSTVLMEVQSKYYCLAAVAALLKYVEFIQNSVYAPKSLKICFQGSEQTAMIDSSSAQNLELLINNQDYRNNHTLFGVLNYTKTPGGSRRLRSNILEPLVDIETINMRLDCVQELLQDEELFFGLQSVISRFLDTEQLLSVLVQIPKQDTVNAAESKITNLIYLKHTLELVDPLKIAMKNCNTPLLRAYYGSLEDKRFGIILEKIKTVINDDARYMKGCLNMRTQKCYAVRSNINEFLDIARRTYTEIVDDIAGMISQLGEKYSLPLRTSFSSARGFFIQMTTDCIALPSDQLPSEFIKISKVKNSYSFTSADLIKMNERCQESLREIYHMTYMIVCKLLSEIYEHIHCLYKLSDTVSMLDMLLSFAHACTLSDYVRPEFTDTLAIKQGWHPILEKISAEKPIANNTYVTEGSNFLIITGPNMSGKSTYLKQIALCQIMAQIGSYVPAEYSSFRIAKQIFTRISTDDDIETNSSTFMKEMKEIAYILHNANDKSLILIDELGRGTNTEEGIGICYAVCEYLLSLKAFTLFATHFLELCHIDALYPNVENMHFEVQHVKNTSRNKEAILYTYKLSKGLTEEKNYGLKAAEVSSLPPSIVLDAKEITTQITRQILQNQRSTPEMERQRAVYHLATRLVQTARNSQLDPDSLRIYLSNLKKKYKEDFPRTEQVPEKTEE
B1: the binding result in assay [1] and in assay [2] was “binds” throughout.

B2: hMSH4(G685A) (protein, UniProt O15457 1-936)
chain: MLRPEISSTSPSAPAVSPSSGETRSPQGPRYNFGLQETPQSRPSVQVVSASTCPGTSGAAGDRSSSSSSLPCPAPNSRPAQGSYFGNKRAYAENTVASNFTFGASSSSARDTNYPQTLKTPLSTGNPQRSGYKSWTPQVGYSASSSSAISAHSPSVIVAVVEGRGLARGEIGMASIDLKNPQIILSQFADNTTYAKVITKLKILSPLEIIMSNTACAVGNSTKLFTLITENFKNVNFTTIQRKYFNETKGLEYIEQLCIAEFSTVLMEVQSKYYCLAAVAALLKYVEFIQNSVYAPKSLKICFQGSEQTAMIDSSSAQNLELLINNQDYRNNHTLFGVLNYTKTPGGSRRLRSNILEPLVDIETINMRLDCVQELLQDEELFFGLQSVISRFLDTEQLLSVLVQIPKQDTVNAAESKITNLIYLKHTLELVDPLKIAMKNCNTPLLRAYYGSLEDKRFGIILEKIKTVINDDARYMKGCLNMRTQKCYAVRSNINEFLDIARRTYTEIVDDIAGMISQLGEKYSLPLRTSFSSARGFFIQMTTDCIALPSDQLPSEFIKISKVKNSYSFTSADLIKMNERCQESLREIYHMTYMIVCKLLSEIYEHIHCLYKLSDTVSMLDMLLSFAHACTLSDYVRPEFTDTLAIKQGWHPILEKISAEKPIANNTYVTEGSNFLIITGPNMSAKSTYLKQIALCQIMAQIGSYVPAEYSSFRIAKQIFTRISTDDDIETNSSTFMKEMKEIAYILHNANDKSLILIDELGRGTNTEEGIGICYAVCEYLLSLKAFTLFATHFLELCHIDALYPNVENMHFEVQHVKNTSRNKEAILYTYKLSKGLTEEKNYGLKAAEVSSLPPSIVLDAKEITTQITRQILQNQRSTPEMERQRAVYHLATRLVQTARNSQLDPDSLRIYLSNLKKKYKEDFPRTEQVPEKTEE
For B2, in assay [1], the binding result is given as “binds”.

B3: Mlh1-HA (protein, UniProt P38920 1-769)
chain: MSLRIKALDASVVNKIAAGEIIISPVNALKEMMENSIDANATMIDILVKEGGIKVLQITDNGSGINKADLPILCERFTTSKLQKFEDLSQIQTYGFRGEALASISHVARVTVTTKVKEDRCAWRVSYAEGKMLESPKPVAGKDGTTILVEDLFFNIPSRLRALRSHNDEYSKILDVVGRYAIHSKDIGFSCKKFGDSNYSLSVKPSYTVQDRIRTVFNKSVASNLITFHISKVEDLNLESVDGKVCNLNFISKKSISPIFFINNRLVTCDLLRRALNSVYSNYLPKGNRPFIYLGIVIDPAAVDVNVHPTKREVRFLSQDEIIEKIANQLHAELSAIDTSRTFKASSISTNKPESLIPFNDTIESDRNRKSLRQAQVVENSYTTANSQLRKAKRQENKLVRIDASQAKITSFLSSSQQFNFEGSSTKRQLSEPKVTNVSHSQEAEKLTLNESEQPRDANTINDNDLKDQPKKKQKLGDYKVPSIADDEKNALPISKDGYIRVPKERVNVNLTSIKKLREKVDDSIHRELTDIFANLNYVGVVDEERRLAAIQHDLKLFLIDYGSVCYELFYQIGLTDFANFGKINLQSTNVSDDIVLYNLLSEFDELNDDASKEKIISKIWDMSSMLNEYYSIELVNDGLDNDLKSVKLKSLPLLLKGYIPSLVKLPFFIYRLGKEVDWEDEQECLDGILREIALLYIPDMVPKVDTSDASLSEDEKAQFINRKEHISSLLEHVLFPCIKRRFLAPRHILKDVVEIANLPDLYKVFERC
Regarding B3, the binding entry in assay [3] is listed as “binds”.

B4: Mlh3-Myc (protein, UniProt Q12083 1-715)
chain: MSQHIRKLDSDVSERLKSQACTVSLASAVREIVQNSVDAHATTIDVMIDLPNLSFAVYDDGIGLTRSDLNILATQNYTSKIRKMNDLVTMKTYGYRGDALYSISNVSNLFVCSKKKDYNSAWMRKFPSKSVMLSENTILPIDPFWKICPWSRTKSGTVVIVEDMLYNLPVRRRILKEEPPFKTFNTIKADMLQILVMHPMISLNVQYTDKLRINTEVLFRSKNITEGLTKHQQMSQVLRNVFGAIIPPDMLKKVSLKFNEYQIEGIISKMPVGLKDLQFIYINGRRYADSAFQGYVDSLFQAQDFGEKGMSLLKTKSVGKPYRSHPVFILDVRCPQTIDDLLQDPAKKIVKPSHIRTIEPLIVKTIRSFLTFQGYLTPDKSDSSFEIVNCSQKTATLPDSRIQISKRNQVLNSKMKIARINSYIGKPAVNGCRINNSTINYEKIKNIRIDGQKSRLRNKLSSRPYDSGFTEDYDSIGKTITDFSISRSVLAKYEVINQVDKKFILIRCLDQSIHNCPLLVLVDQHACDERIRLEELFYSLLTEVVTGTFVARDLKDCCIEVDRTEADLFKHYQSEFKKWGIGYETIEGTMETSLLEIKTLPEMLTSKYNGDKDYLKMVLLQHAHDLKDFKKLPMDLSHFENYTSVDKLYWWKYSSCVPTVFHEILNSKACRSAVMFGDELTRQECIILISKLSRCHNPFECAHGRPSMVPIAELK
As for B4, the binding result in assay [3] was “binds”.
